Literature values, collected in US20250057808A1, “COMPOSITION COMPRISING BETA LACTAM FOR TREATING ALCOHOL DEPENDENCE AND ALCOHOL ASSOCIATED DISEASES OR CONDITIONS” (Temple University of the Commonwealth System of Higher …, priority 2023, published 2025).
At least one compound was matched to its structure with a doubt left.

Settings: earlier and literature studies in rats; cited from earlier work

Row | SMILES | Ethanol drinking behavior / consumption
1 | CN(CCOc1ccc(CC2SC(=O)NC2=O)cc1)c1ccccn1 (centres unmarked) [rosiglitazone] | reduced ethanol drinking and stress-induced relapse
2 | CCc1ccc(CCOc2ccc(CC3SC(=O)NC3=O)cc2)nc1 (centres unmarked) [pioglitazone] | reduced ethanol drinking and stress-induced relapse
